Binding data for nine molecules are collected here from US20200164046A1.

Chains of the proteins cited; added tags and fusions are not shown.
UniProt P31749: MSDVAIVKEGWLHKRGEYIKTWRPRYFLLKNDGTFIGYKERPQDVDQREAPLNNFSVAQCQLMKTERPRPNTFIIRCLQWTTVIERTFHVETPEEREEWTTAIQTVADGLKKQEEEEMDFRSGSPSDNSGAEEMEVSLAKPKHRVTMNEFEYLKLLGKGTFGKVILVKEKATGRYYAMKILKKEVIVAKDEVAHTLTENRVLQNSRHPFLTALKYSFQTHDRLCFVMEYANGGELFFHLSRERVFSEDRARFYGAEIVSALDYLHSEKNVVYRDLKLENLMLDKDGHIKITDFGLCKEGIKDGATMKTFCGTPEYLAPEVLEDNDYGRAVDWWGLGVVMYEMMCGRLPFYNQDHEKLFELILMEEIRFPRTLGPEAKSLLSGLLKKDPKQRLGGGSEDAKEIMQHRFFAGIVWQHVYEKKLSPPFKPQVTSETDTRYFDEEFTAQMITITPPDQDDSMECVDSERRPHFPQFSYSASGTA

For experiment [1], the target named is Akt1 (endogenous, in lysates of human Caco-2 or SW620 colon cancer cells) (human) (UniProt P31749). Kind of experiment: GST pull-down of Akt1 by truncated versions of NT1-2-2, densitometry normalised to NT1-2-2.
The target is the same in experiment [2]. The experiment can be described thus: GST pull-down of Akt1 by truncated versions of NT1-2-2.
For experiment [3] the target is unchanged. Kind of experiment: competition: free peptide against full length GST-FAK beads for Akt1 in a pull-down; binding to Akt1 is shown only through the competition.
The target is the same in experiment [4]. Kind of experiment: competition: free peptide at 160 µM against full length GST-FAK beads for Akt1 in a pull-down (n=12-14).
For experiment [5] the target is unchanged. The experiment can be described thus: GST pull-down of Akt1 from cell lysate by GST-FAK truncations on beads, western blot. On the technique in general: In western blotting, separated proteins are transferred to a membrane and probed.
Experiment [6] has the same target. The experiment can be described thus: GST pull-down of Akt1, against the GST control.
Experiment [7] shares this target. Kind of experiment: competition: free peptide against GST-FAK-NT1 beads for Akt1 in a pull-down; binding to Akt1 is shown only through the competition.
Experiment [8] has the same target. The experiment can be described thus: competition: free peptide against GST-FAK-NT1 beads for Akt1 in a pull-down (n=4).

Results are given in words; binding and its absence hold for the method and conditions named. For part of these data: Binding seen in cells or lysates may run through a third protein. Some binding calls cover weakened binding; strength is not graded here. For part of these data: Sequences can lack the tags named with a protein.

Regarding LAHPPEEWKYELRI (peptide, not shown: a dimerising Fc or GST) [GST-FAK NT1-2-2 Truncation 3 (β-strand 4 and α-helix 2 truncated)], the binding result in experiment [1] and in experiment [2] was “binds” in each case.

Turning to VSSVREKYELAHPPEEWKYELRI (peptide, not shown: a dimerising Fc or GST) [GST-FAK NT1-2-2 Truncation 1 (β-strand 4 truncated)], the binding entry in experiment [1] and in experiment [2] was “binds” in each case.

Take LAHPPEE [wild-type FAK short helix peptide LAHPPEE]: the binding result in experiment [3] and in experiment [4] was “binds” in each case.

As for EVHWVHLDMGVSSVREKYELAHPPEEWKYELRI (peptide, not shown: a dimerising Fc or GST) [GST-FAK-NT1-2-2 (FAK residues 94-126)], the binding entry in experiment [5] and in experiment [6] was “binds” in each case.

On to EVHWVHLDMGVSSVREKYELAHPPEEWKYELRI [Pep-FAK-NT1-2-2 (wild-type 33 amino acid peptide)], for which the binding result in experiment [7] and in experiment [8] was “binds” each time.

VSSVREKYELAHPPEE (peptide, not shown: a dimerising Fc or GST) [GST-FAK NT1-2-2 Truncation 2 (β-strand 4 and β-strand 5 truncated)]: the binding entry in experiment [1] and in experiment [2] was “binds” throughout.

With AAHCGEE [mutant FAK short helix peptide AAHCGEE], the binding result in experiment [3] and in experiment [4] was “binds” throughout.

For the molecule LAHPSEE [mutant FAK short helix peptide LAHPSEE], the binding result in experiment [3] and in experiment [4] was “binds” throughout.

As for LAHPPEE (peptide, not shown: a dimerising Fc or GST) [GST-FAK NT1-2-2 Truncation 4 (β-strand 4, β-strand 5 and α-helix 2 truncated; short helix LAHPPEE)], the binding result in experiment [1] and in experiment [2] was “binds” in each case.
